# Assay results taken from the supplement of paper PMC10849652.
# By UniProt entry, the sequences of proteins in these tests, tags left out. Where a name states a change or a piece, a line headed by the entry shows the natural chain unless it says otherwise.
# UniProt P20936: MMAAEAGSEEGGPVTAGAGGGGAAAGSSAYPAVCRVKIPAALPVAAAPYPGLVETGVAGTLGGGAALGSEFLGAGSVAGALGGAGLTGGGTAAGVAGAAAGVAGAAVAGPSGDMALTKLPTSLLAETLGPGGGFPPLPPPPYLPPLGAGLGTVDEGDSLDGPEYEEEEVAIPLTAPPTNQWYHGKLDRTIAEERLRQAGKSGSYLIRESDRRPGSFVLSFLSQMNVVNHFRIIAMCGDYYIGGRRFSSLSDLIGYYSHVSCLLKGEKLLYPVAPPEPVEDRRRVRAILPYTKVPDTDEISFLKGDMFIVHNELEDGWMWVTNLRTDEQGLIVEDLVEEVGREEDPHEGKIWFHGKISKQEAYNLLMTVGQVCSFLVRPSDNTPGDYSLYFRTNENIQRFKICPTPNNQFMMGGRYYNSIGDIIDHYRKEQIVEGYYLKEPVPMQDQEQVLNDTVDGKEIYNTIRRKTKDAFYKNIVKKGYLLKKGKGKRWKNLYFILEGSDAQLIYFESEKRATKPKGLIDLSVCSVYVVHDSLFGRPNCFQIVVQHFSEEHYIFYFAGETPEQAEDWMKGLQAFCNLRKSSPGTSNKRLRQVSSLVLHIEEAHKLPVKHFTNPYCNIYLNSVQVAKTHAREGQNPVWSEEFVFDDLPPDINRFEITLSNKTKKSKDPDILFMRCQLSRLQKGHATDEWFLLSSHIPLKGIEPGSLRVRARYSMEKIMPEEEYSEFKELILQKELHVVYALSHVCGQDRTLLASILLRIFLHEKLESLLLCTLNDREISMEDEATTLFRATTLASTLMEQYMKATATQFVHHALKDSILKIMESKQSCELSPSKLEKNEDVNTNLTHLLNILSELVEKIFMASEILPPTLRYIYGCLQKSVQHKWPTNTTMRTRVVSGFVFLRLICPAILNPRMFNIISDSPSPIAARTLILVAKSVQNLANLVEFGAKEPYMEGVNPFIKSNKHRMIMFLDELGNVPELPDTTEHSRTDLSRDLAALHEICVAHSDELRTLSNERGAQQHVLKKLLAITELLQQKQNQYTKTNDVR
# UniProt Q92930: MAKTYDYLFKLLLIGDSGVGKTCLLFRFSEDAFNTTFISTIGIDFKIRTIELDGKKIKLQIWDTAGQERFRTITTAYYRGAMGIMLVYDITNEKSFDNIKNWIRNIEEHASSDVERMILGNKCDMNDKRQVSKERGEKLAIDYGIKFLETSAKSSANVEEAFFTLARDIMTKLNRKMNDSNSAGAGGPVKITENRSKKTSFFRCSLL
# UniProt Q9NW64: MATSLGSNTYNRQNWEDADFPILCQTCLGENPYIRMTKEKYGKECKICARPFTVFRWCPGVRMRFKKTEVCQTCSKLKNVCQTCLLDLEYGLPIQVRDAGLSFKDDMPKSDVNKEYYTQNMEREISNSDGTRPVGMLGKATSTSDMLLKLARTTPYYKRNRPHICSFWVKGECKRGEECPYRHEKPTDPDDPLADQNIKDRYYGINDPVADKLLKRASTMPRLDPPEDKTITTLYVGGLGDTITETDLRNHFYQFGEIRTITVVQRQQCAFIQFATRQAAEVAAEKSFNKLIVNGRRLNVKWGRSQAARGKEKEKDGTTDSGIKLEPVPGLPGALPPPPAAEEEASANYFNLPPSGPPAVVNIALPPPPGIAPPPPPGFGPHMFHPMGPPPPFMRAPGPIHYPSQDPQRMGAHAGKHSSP
# UniProt P62491: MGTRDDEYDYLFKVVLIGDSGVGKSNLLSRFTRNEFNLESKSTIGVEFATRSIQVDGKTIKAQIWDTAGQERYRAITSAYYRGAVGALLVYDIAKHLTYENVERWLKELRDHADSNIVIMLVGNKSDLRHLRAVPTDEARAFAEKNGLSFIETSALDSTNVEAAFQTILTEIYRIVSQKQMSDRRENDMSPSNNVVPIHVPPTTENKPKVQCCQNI
# UniProt Q9P2N5: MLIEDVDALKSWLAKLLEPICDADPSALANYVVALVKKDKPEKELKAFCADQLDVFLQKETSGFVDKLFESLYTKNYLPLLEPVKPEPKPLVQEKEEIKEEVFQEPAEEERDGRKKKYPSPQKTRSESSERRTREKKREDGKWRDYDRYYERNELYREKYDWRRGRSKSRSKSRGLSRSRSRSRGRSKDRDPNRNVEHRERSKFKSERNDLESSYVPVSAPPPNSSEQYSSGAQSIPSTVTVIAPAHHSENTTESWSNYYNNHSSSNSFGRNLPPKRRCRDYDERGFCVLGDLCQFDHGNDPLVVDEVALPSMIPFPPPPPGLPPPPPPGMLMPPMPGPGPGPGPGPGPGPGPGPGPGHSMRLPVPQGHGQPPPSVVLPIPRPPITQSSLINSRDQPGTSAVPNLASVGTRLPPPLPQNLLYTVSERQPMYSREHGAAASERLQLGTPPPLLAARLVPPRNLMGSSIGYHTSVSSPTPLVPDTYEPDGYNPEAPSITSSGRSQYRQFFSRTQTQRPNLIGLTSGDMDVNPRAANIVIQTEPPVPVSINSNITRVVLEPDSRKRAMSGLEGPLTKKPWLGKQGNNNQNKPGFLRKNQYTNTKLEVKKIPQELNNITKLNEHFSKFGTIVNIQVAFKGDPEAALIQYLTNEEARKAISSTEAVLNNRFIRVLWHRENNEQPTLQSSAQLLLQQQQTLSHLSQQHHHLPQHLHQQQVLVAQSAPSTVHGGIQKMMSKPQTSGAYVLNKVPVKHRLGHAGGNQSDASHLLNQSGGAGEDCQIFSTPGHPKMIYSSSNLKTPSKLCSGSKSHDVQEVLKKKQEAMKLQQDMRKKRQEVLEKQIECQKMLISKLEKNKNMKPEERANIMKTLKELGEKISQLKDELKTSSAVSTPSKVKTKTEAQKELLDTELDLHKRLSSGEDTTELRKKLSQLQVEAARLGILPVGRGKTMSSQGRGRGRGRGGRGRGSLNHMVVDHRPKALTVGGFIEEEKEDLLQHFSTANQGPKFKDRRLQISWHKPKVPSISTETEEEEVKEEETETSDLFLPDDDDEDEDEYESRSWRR
# UniProt P62834: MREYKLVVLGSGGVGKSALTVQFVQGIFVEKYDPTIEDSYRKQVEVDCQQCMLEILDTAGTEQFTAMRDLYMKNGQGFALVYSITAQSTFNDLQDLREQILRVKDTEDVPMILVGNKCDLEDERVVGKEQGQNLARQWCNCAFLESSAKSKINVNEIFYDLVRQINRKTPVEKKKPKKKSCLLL
# UniProt Q8WWW0: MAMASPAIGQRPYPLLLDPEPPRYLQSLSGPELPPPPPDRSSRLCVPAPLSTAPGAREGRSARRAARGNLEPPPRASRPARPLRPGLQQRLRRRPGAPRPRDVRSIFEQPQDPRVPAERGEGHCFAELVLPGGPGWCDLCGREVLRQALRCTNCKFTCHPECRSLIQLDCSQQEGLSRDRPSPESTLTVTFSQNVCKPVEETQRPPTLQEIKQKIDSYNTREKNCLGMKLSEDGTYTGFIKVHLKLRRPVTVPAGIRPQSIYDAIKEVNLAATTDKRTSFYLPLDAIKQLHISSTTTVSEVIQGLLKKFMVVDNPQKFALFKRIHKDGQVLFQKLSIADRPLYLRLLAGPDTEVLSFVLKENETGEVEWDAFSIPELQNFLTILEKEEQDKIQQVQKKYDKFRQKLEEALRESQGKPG
# UniProt Q13636: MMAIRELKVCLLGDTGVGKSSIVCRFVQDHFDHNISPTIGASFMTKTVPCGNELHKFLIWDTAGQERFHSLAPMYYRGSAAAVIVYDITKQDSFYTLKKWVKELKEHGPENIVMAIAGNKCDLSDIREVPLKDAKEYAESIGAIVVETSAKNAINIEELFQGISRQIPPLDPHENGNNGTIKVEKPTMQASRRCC
# UniProt Q99638: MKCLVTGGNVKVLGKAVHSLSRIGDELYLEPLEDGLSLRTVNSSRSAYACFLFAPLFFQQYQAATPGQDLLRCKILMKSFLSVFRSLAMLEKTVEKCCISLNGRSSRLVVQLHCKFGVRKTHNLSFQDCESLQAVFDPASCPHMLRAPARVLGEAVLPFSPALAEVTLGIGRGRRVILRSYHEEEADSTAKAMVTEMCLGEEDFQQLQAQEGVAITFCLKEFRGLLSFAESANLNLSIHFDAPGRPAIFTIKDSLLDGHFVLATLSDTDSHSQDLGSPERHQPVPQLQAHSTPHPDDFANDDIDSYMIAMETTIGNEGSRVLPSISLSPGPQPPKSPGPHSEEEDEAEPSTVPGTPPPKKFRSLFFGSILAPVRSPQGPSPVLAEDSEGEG
# UniProt P06400: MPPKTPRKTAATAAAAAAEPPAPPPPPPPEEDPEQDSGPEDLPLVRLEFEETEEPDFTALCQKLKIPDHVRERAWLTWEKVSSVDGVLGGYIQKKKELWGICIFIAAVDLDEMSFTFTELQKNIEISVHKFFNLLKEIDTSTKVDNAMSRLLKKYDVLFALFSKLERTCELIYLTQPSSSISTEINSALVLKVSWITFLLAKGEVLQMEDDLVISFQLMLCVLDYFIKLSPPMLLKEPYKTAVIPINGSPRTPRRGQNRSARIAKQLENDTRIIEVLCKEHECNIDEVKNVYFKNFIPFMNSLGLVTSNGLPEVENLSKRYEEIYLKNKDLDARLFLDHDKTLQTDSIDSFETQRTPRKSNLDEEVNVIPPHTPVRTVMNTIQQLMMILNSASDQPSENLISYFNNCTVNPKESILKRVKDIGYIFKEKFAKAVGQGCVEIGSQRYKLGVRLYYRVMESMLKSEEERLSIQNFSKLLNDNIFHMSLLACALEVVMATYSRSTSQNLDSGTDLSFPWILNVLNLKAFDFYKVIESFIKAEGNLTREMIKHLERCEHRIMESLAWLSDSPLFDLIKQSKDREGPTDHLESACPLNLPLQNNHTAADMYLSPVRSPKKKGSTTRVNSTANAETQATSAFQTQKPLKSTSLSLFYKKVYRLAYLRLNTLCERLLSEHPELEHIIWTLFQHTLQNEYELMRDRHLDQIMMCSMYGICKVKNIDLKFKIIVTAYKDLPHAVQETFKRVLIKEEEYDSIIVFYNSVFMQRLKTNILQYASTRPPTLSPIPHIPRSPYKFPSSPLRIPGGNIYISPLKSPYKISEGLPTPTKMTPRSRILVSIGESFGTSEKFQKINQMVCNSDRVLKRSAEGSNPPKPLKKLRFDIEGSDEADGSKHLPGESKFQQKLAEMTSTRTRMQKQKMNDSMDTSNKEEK
# UniProt Q9H0H5: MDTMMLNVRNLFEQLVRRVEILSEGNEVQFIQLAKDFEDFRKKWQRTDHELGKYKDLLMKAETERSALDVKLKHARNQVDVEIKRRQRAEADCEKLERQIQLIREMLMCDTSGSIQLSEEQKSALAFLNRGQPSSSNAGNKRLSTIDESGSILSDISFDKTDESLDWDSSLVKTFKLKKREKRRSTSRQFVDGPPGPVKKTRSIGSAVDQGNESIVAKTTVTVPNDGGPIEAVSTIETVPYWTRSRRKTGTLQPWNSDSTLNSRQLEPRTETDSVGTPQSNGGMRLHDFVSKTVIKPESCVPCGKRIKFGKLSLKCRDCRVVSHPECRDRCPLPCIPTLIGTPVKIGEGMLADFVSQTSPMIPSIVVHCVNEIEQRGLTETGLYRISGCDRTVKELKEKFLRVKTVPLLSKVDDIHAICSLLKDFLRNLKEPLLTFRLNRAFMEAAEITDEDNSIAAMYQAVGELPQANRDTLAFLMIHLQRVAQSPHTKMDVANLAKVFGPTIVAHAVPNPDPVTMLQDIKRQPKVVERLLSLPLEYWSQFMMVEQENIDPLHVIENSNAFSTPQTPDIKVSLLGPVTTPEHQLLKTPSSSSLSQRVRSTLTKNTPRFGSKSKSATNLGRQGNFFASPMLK
# UniProt P11233: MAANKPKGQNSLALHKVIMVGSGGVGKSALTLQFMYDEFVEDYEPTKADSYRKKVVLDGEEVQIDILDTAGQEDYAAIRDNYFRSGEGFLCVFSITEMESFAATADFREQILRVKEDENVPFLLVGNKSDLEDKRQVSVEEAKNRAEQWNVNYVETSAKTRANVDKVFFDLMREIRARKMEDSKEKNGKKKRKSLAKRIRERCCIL
# UniProt P46060: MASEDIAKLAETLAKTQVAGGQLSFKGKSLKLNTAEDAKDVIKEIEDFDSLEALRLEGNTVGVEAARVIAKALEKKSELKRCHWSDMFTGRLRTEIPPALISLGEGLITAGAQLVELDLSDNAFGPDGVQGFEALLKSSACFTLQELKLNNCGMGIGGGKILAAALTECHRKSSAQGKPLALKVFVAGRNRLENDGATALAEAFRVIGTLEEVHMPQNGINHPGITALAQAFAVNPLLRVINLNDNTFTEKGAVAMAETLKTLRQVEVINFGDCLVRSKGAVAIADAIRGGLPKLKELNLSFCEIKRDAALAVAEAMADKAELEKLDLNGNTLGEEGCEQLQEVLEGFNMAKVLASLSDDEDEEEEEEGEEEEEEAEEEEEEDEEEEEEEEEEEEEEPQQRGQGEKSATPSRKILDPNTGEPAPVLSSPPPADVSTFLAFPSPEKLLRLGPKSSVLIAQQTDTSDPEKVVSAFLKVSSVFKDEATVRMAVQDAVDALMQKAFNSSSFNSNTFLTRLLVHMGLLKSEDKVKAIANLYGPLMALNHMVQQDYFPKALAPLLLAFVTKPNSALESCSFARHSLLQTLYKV
# Some of the results follow.
# Compound: Cc1cn(-c2cc(NC(=O)c3ccc(C)c(Nc4nccc(-c5cccnc5)n4)c3)cc(C(F)(F)F)c2)cn1 [nilotinib]
# Experiment: log2 fold change, soluble protein after heating vs DMSO (PISA); higher = thermal stabilisation; K562 cells, 10 uM, 30 min; active = over 0.2 and 3.5 SD of the protein, either way, in both replicates (recomputed)
# Outline: (§1)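 K562 cells at 2×10^6 cells/mL were exposed to 10 μM compound for 30 min, then aliquots were heated for 3 min across 48°C-58°C, pooled, and extracted in PBS containing 0.5% NP-40 at 4°C. The supernatant after 21,000xg for 90 min was taken as soluble protein and measured by TMTpro 16plex LC-MS/MS with channel sums equalised. Thermal stability is reported relative to control samples, with values from duplicates. Fold changes are given on a log2 scale.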
row,Target,log2 fold change
1,RASA1 (UniProt P20936),inactive: -0.006
2,RAB11FIP1 (UniProt Q6WKZ4),inactive: 0.049
3,RAB8B (UniProt Q92930),inactive: 0.059
4,RAP1B (UniProt F5GZG1),inactive: 0.111
5,RBM22 (UniProt Q9NW64),inactive: -0.019
6,RALY (UniProt Q9UKM9),inactive: -0.029
7,RAB11A (UniProt P62491),inactive: 0.041
8,RALGAPB (UniProt Q86X10),inactive: -0.05
9,RALGAPA1 isoform 6 (UniProt Q6GYQ0),inactive: -0.115
10,RANBP2 (UniProt P49792),inactive: -0.05
11,RBM27 (UniProt Q9P2N5),inactive: 0.019
12,RB1CC1 (UniProt Q8TDY2),inactive: 0.009
13,RAD51 (UniProt Q06609),inactive: -0.082
14,RAP1A (UniProt P62834),inactive: 0.099
15,RASSF5 (UniProt Q8WWW0),inactive: 0.035
16,RAPGEF6 isoform 4 (UniProt Q8TEU7),inactive: -0.065
17,RAB31 (UniProt Q13636),inactive: 0.011
18,RAD9A (UniProt Q99638),inactive: 0.037
19,RAD51AP1 (UniProt Q96B01),inactive: -0.005
20,RB1 (UniProt P06400),inactive: 0.015
21,RANBP10 (UniProt Q6VN20),inactive: 0.019
22,RACGAP1 (UniProt Q9H0H5),inactive: -0.01
23,RAB6D (UniProt Q53S08),inactive: -0.024
24,RAN (UniProt P62826),inactive: 0.002
25,RAB3GAP1 (UniProt Q15042),inactive: -0.064
26,RALA (UniProt P11233),inactive: 0.064
27,RANGAP1 (UniProt P46060),inactive: -0.073
28,RAB8A isoform 2 (UniProt P61006),inactive: -0.028
29,RAC1 (UniProt P63000),inactive: 0.073

# Compound: Cc1nc(Nc2n[nH]c3c2CN(C(=O)N[C@H](CN(C)C)c2ccccc2)C3(C)C)c2sccc2n1
# Experiment: as above
# Outline: as §1
row,Target,log2 fold change
1,RASA1 (UniProt P20936),inactive: -0.242
2,RAB11FIP1 (UniProt Q6WKZ4),inactive: -0.198
3,RAB8B (UniProt Q92930),inactive: -0.036
4,RAP1B (UniProt F5GZG1),inactive: 0.028
5,RBM22 (UniProt Q9NW64),inactive: -0.051
6,RALY (UniProt Q9UKM9),inactive: 0.051
7,RAB11A (UniProt P62491),inactive: -0.027
8,RALGAPB (UniProt Q86X10),inactive: -0.092
9,RALGAPA1 isoform 6 (UniProt Q6GYQ0),inactive: 0.068
10,RANBP2 (UniProt P49792),inactive: 0.087
11,RBM27 (UniProt Q9P2N5),active: -0.91
12,RB1CC1 (UniProt Q8TDY2),inactive: 0.078
13,RAD51 (UniProt Q06609),inactive: -0.006
14,RAP1A (UniProt P62834),inactive: -0.054
15,RASSF5 (UniProt Q8WWW0),inactive: 0.096
16,RAPGEF6 isoform 4 (UniProt Q8TEU7),inactive: -0.254
17,RAB31 (UniProt Q13636),inactive: 0.019
18,RAD9A (UniProt Q99638),inactive: 0.007
19,RAD51AP1 (UniProt Q96B01),inactive: 0.069
20,RB1 (UniProt P06400),active: -0.378
21,RANBP10 (UniProt Q6VN20),inactive: 0.021
22,RACGAP1 (UniProt Q9H0H5),inactive: -0.304
23,RAB6D (UniProt Q53S08),inactive: -0.012
24,RAN (UniProt P62826),inactive: 0.01
25,RAB3GAP1 (UniProt Q15042),inactive: -0.083
26,RALA (UniProt P11233),inactive: -0.012
27,RANGAP1 (UniProt P46060),inactive: -0.025
28,RAB8A isoform 2 (UniProt P61006),inactive: 0.012
29,RAC1 (UniProt P63000),inactive: 0.045

# Compound: Cc1nc(Nc2ncc(C(=O)Nc3c(C)cccc3Cl)s2)cc(N2CCN(CCO)CC2)n1 [dasatinib]
# Experiment: as above
# Outline: as §1
row,Target,log2 fold change
1,RASA1 (UniProt P20936),inactive: -0.046
2,RAB11FIP1 (UniProt Q6WKZ4),inactive: -0.037
3,RAB8B (UniProt Q92930),inactive: 0.015
4,RAP1B (UniProt F5GZG1),inactive: 0.178
5,RBM22 (UniProt Q9NW64),inactive: -0.07
6,RALY (UniProt Q9UKM9),inactive: 0.249
7,RASA2 (UniProt Q15283),inactive: -0.114
8,RAB11A (UniProt P62491),inactive: 0.148
9,RALGAPB (UniProt Q86X10),inactive: -0.162
10,RALGAPA1 isoform 6 (UniProt Q6GYQ0),inactive: -0.124
11,RANBP2 (UniProt P49792),inactive: -0.011
12,RBM27 (UniProt Q9P2N5),inactive: -0.07
13,RB1CC1 (UniProt Q8TDY2),inactive: -0.103
14,RACK1 (UniProt D6RF23),inactive: 0.122
15,RAD51 (UniProt Q06609),inactive: -0.009
16,RAP1A (UniProt P62834),inactive: 0.052
17,RASSF5 (UniProt Q8WWW0),inactive: 0.014
18,RAB31 (UniProt Q13636),inactive: 0.001
19,RAD9A (UniProt Q99638),inactive: 0.029
20,RAD51AP1 (UniProt Q96B01),inactive: 0.022
21,RB1 (UniProt P06400),inactive: 0.011
22,RACGAP1 (UniProt Q9H0H5),inactive: -0.017
23,RAB6D (UniProt Q53S08),inactive: 0.04
24,RAN (UniProt P62826),inactive: 0.033
25,RAB3GAP1 (UniProt Q15042),inactive: -0.015
26,"RAPGEF2, A0A2R8YGD3",inactive: 0.097
27,RALA (UniProt P11233),inactive: 0.027
28,RANGAP1 (UniProt P46060),inactive: -0.088
29,RAB8A isoform 2 (UniProt P61006),inactive: 0.028
30,RAC1 (UniProt P63000),inactive: 0.007
